Measured values from US20220265694A1, “COMPOSITIONS AND METHODS FOR TREATING AN INFECTION” (CMPD LICENSING, LLC, priority 2016, published 2022).
At least one structure is not confirmed: it was looked up by name or label, or the drawing left a doubt.

Assays:
[1] = tested on: Bacteroides fragilis; assay: Expected efficacy of antibiotic agents; settings: expected efficacy against Bacteroides fragilis; Gram: anaer
[2] = tested on: Chlamydia pneumoniae; assay: Expected efficacy of antibiotic agents; settings: expected efficacy against Chlamydia pneumoniae; Gram: n/a
[3] = tested on: Chlamydia trachomatis; assay: Expected efficacy of antibiotic agents; settings: expected efficacy against Chlamydia trachomatis; Gram: n/a
[4] = tested on: Mycoplasma pneumoniae; assay: Expected efficacy of antibiotic agents; settings: expected efficacy against Mycoplasma pneumoniae; Gram: n/a
[5] = tested on: Acinetobacter baumannii; assay: Expected efficacy of antibiotic agents; settings: expected efficacy against Acinetobacter baumannii; Gram: neg
[6] = tested on: Acinetobacter calcoaceticus; assay: Expected efficacy of antibiotic agents; settings: expected efficacy against Acinetobacter calcoaceticus; Gram: neg
[7] = tested on: Acinetobacter lwoffii; assay: Expected efficacy of antibiotic agents; settings: expected efficacy against Acinetobacter lwoffii; Gram: neg
[8] = tested on: Bartonella bacilliformis; assay: Expected efficacy of antibiotic agents; settings: expected efficacy against Bartonella bacilliformis; Gram: neg
[9] = tested on: Campylobacter jejuni; assay: Expected efficacy of antibiotic agents; settings: expected efficacy against Campylobacter jejuni; Gram: neg
[10] = tested on: Citrobacter diversus; assay: Expected efficacy of antibiotic agents; settings: expected efficacy against Citrobacter diversus; Gram: neg
[11] = tested on: Citrobacter freundii; assay: Expected efficacy of antibiotic agents; settings: expected efficacy against Citrobacter freundii; Gram: neg
[12] = tested on: Enterobacter aerogenes; assay: Expected efficacy of antibiotic agents; settings: expected efficacy against Enterobacter aerogenes; Gram: neg
[13] = tested on: Enterobacter cloacae; assay: Expected efficacy of antibiotic agents; settings: expected efficacy against Enterobacter cloacae; Gram: neg
[14] = tested on: Enterobacter sakazakii; assay: Expected efficacy of antibiotic agents; settings: expected efficacy against Enterobacter sakazakii; Gram: neg
[15] = tested on: Escherichia coli; assay: Expected efficacy of antibiotic agents; settings: expected efficacy against Escherichia coli; Gram: neg
[16] = tested on: Haemophilus ducreyi; assay: Expected efficacy of antibiotic agents; settings: expected efficacy against Haemophilus ducreyi; Gram: neg
[17] = tested on: Haemophilus influenzae; assay: Expected efficacy of antibiotic agents; settings: expected efficacy against Haemophilus influenzae; Gram: neg
[18] = tested on: Haemophilus parainfluenzae; assay: Expected efficacy of antibiotic agents; settings: expected efficacy against Haemophilus parainfluenzae; Gram: neg
[19] = tested on: Klebsiella (Calymmatobacterium); assay: Expected efficacy of antibiotic agents; settings: expected efficacy against Klebsiella (Calymmatobacterium); Gram: neg
[20] = tested on: Klebsiella oxytoca; assay: Expected efficacy of antibiotic agents; settings: expected efficacy against Klebsiella oxytoca; Gram: neg
[21] = tested on: Klebsiella pneumoniae; assay: Expected efficacy of antibiotic agents; settings: expected efficacy against Klebsiella pneumoniae; Gram: neg
[22] = tested on: Moraxella catarrhalis; assay: Expected efficacy of antibiotic agents; settings: expected efficacy against Moraxella catarrhalis; Gram: neg
[23] = tested on: Morganella morganii; assay: Expected efficacy of antibiotic agents; settings: expected efficacy against Morganella morganii; Gram: neg
[24] = tested on: Neisseria gonorrhoeae; assay: Expected efficacy of antibiotic agents; settings: expected efficacy against Neisseria gonorrhoeae; Gram: neg
[25] = tested on: Neisseria meningitidis; assay: Expected efficacy of antibiotic agents; settings: expected efficacy against Neisseria meningitidis; Gram: neg
[26] = tested on: Proteus mirabilis; assay: Expected efficacy of antibiotic agents; settings: expected efficacy against Proteus mirabilis; Gram: neg
[27] = tested on: Proteus vulgaris; assay: Expected efficacy of antibiotic agents; settings: expected efficacy against Proteus vulgaris; Gram: neg
[28] = tested on: Providencia rettgeri; assay: Expected efficacy of antibiotic agents; settings: expected efficacy against Providencia rettgeri; Gram: neg
[29] = tested on: Providencia stuartii; assay: Expected efficacy of antibiotic agents; settings: expected efficacy against Providencia stuartii; Gram: neg
[30] = tested on: Pseudomonas aeruginosa; assay: Expected efficacy of antibiotic agents; settings: expected efficacy against Pseudomonas aeruginosa; Gram: neg
[31] = tested on: Salmonella typhi; assay: Expected efficacy of antibiotic agents; settings: expected efficacy against Salmonella typhi; Gram: neg
[32] = tested on: Serratia marcescens; assay: Expected efficacy of antibiotic agents; settings: expected efficacy against Serratia marcescens; Gram: neg
[33] = tested on: Shigella dysenteriae; assay: Expected efficacy of antibiotic agents; settings: expected efficacy against Shigella dysenteriae; Gram: neg
[34] = tested on: Vibrio cholerae; assay: Expected efficacy of antibiotic agents; settings: expected efficacy against Vibrio cholerae; Gram: neg
[35] = tested on: Corynebacterium urealyticum; assay: Expected efficacy of antibiotic agents; settings: expected efficacy against Corynebacterium urealyticum; Gram: pos
[36] = tested on: Enterococcus faecalis; assay: Expected efficacy of antibiotic agents; settings: expected efficacy against Enterococcus faecalis; Gram: pos
[37] = tested on: Enterococcus faecium; assay: Expected efficacy of antibiotic agents; settings: expected efficacy against Enterococcus faecium; Gram: pos
[38] = tested on: Methicillin resistant staph aureus (MRSA); assay: Expected efficacy of antibiotic agents; settings: expected efficacy against Methicillin resistant staph aureus (MRSA); Gram: pos
[39] = tested on: Peptostreptococcus; assay: Expected efficacy of antibiotic agents; settings: expected efficacy against Peptostreptococcus; Gram: pos
[40] = tested on: Staphylococcus aureus (MSSA); assay: Expected efficacy of antibiotic agents; settings: expected efficacy against Staphylococcus aureus (MSSA); Gram: pos
[41] = tested on: Staphylococcus epidermidis; assay: Expected efficacy of antibiotic agents; settings: expected efficacy against Staphylococcus epidermidis; Gram: pos
[42] = tested on: Streptococcus agalactiae; assay: Expected efficacy of antibiotic agents; settings: expected efficacy against Streptococcus agalactiae; Gram: pos
[43] = tested on: Streptococcus pneumoniae; assay: Expected efficacy of antibiotic agents; settings: expected efficacy against Streptococcus pneumoniae; Gram: pos
[44] = tested on: Streptococcus pyogenes; assay: Expected efficacy of antibiotic agents; settings: expected efficacy against Streptococcus pyogenes; Gram: pos
[45] = tested on: Viridans group streptococci; assay: Expected efficacy of antibiotic agents; settings: expected efficacy against Viridans group streptococci; Gram: pos
[46] = tested on: Bordetella pertussis; assay: Expected efficacy of antibiotic agents; settings: expected efficacy against Bordetella pertussis; Gram: neg
[47] = tested on: Pseudomonas fluorescens; assay: Expected efficacy of antibiotic agents; settings: expected efficacy against Pseudomonas fluorescens; Gram: neg
[48] = tested on: Corynebacterium jeikeium; assay: Expected efficacy of antibiotic agents; settings: expected efficacy against Corynebacterium jeikeium; Gram: pos
[49] = tested on: Diphtheroids; assay: Expected efficacy of antibiotic agents; settings: expected efficacy against Diphtheroids; Gram: pos
[50] = tested on: Aspergillus flavus; assay: Expected efficacy of antifungal agents; settings: expected efficacy against Aspergillus flavus
[51] = tested on: Aspergillus fumigatus; assay: Expected efficacy of antifungal agents; settings: expected efficacy against Aspergillus fumigatus
[52] = tested on: Blastomyces dermatitidis; assay: Expected efficacy of antifungal agents; settings: expected efficacy against Blastomyces dermatitidis
[53] = tested on: Candida species; assay: Expected efficacy of antifungal agents; settings: expected efficacy against Candida species
[54] = tested on: Cryptococcus neoformans; assay: Expected efficacy of antifungal agents; settings: expected efficacy against Cryptococcus neoformans
[55] = tested on: Sporothrix schenckii; assay: Expected efficacy of antifungal agents; settings: expected efficacy against Sporothrix schenckii
[56] = tested on: Trichophyton mentagrophytes; assay: Expected efficacy of antifungal agents; settings: expected efficacy against Trichophyton mentagrophytes
[57] = tested on: Trichophyton rubrum; assay: Expected efficacy of antifungal agents; settings: expected efficacy against Trichophyton rubrum

C[C@H]1c2cccc(O)c2C(=O)C2=C(O)[C@]3(O)C(=O)C(C(N)=O)=C(O)[C@@H](N(C)C)[C@@H]3[C@@H](O)[C@@H]21 [Doxycycline]
Efficacy [1]: ± | Efficacy [2]: yes | Efficacy [3]: yes | Efficacy [4]: ± | Efficacy [5]: no | Efficacy [6]: ± | Efficacy [7]: no | Efficacy [8]: yes | Efficacy [9]: yes | Efficacy [10]: no | Efficacy [11]: no | Efficacy [12]: ± | Efficacy [13]: ± | Efficacy [14]: ± | Efficacy [15]: ± | Efficacy [16]: yes | Efficacy [17]: yes | Efficacy [18]: yes | Efficacy [19]: yes | Efficacy [20]: ± | Efficacy [21]: ± | Efficacy [22]: yes | Efficacy [23]: no | Efficacy [24]: ± | Efficacy [25]: yes | Efficacy [26]: no | Efficacy [27]: no | Efficacy [28]: no | Efficacy [29]: no | Efficacy [30]: no | Efficacy [31]: ± | Efficacy [32]: no | Efficacy [33]: ± | Efficacy [34]: yes | Efficacy [35]: ± | Efficacy [36]: no | Efficacy [37]: no | Efficacy [38]: ± | Efficacy [39]: ± | Efficacy [40]: ± | Efficacy [41]: yes | Efficacy [42]: ± | Efficacy [43]: yes | Efficacy [44]: ± | Efficacy [45]: ±

C[C@H]1COc2c(N3CCN(C)CC3)c(F)cc3c(=O)c(C(=O)O)cn1c23 [Levofloxacin]
Efficacy [1]: no | Efficacy [2]: yes | Efficacy [4]: yes | Efficacy [5]: ± | Efficacy [6]: ± | Efficacy [7]: ± | Efficacy [8]: yes | Efficacy [46]: ± | Efficacy [9]: yes | Efficacy [10]: yes | Efficacy [11]: yes | Efficacy [12]: yes | Efficacy [13]: yes | Efficacy [14]: yes | Efficacy [15]: yes | Efficacy [17]: yes | Efficacy [18]: yes | Efficacy [20]: yes | Efficacy [21]: yes | Efficacy [22]: yes | Efficacy [23]: yes | Efficacy [24]: yes | Efficacy [25]: yes | Efficacy [26]: yes | Efficacy [27]: yes | Efficacy [28]: yes | Efficacy [29]: yes | Efficacy [30]: yes | Efficacy [47]: yes | Efficacy [31]: yes | Efficacy [32]: yes | Efficacy [33]: yes | Efficacy [34]: yes | Efficacy [48]: no | Efficacy [35]: ± | Efficacy [49]: no | Efficacy [36]: yes | Efficacy [37]: no | Efficacy [38]: no | Efficacy [39]: ± | Efficacy [40]: yes | Efficacy [41]: yes | Efficacy [42]: yes | Efficacy [43]: yes | Efficacy [44]: yes | Efficacy [45]: yes

CCC[C@@H]1C[C@@H](C(=O)N[C@@H]([C@H]2O[C@H](SC)[C@H](O)[C@@H](O)[C@H]2O)[C@H](C)Cl)N(C)C1 [Clindamycin]
Efficacy [1]: yes | Efficacy [2]: ± | Efficacy [39]: yes | Efficacy [40]: yes | Efficacy [41]: yes | Efficacy [42]: yes | Efficacy [43]: yes | Efficacy [44]: yes | Efficacy [45]: yes

CCC(C)n1ncn(-c2ccc(N3CCN(c4ccc(OCC5COC(Cn6cncn6)(c6ccc(Cl)cc6Cl)O5)cc4)CC3)cc2)c1=O (stereo not drawn) [Itraconazole]
Efficacy [50]: yes | Efficacy [51]: yes | Efficacy [52]: yes | Efficacy [53]: yes | Efficacy [54]: yes | Efficacy [55]: yes | Efficacy [56]: yes | Efficacy [57]: yes
